PubChem BioAssay AID1259425, University of Nebraska Medical Center, 2018
In all, the deposit lists about 14,000 reagents; this is an unselected part. Not stated in the record: the time to read-out.

Screen: 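Find knockdowns that reproduce the gene expression pattern seen when KSR1 is lost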 (primary screen)
Cells: HCT116 human colon cancer cells
Reagent: siRNA pool against human genes, 50 nM siRNA
Measurement: 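mRNA of six signature genes measured together by branched-DNA assay after 50 nM siRNA pool, blank removed, divided by geometric mean of two housekeeping genes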
Scale: BNIP3L mRNA: higher = more BNIP3L transcript after knockdown; NDRG1 mRNA: higher = more NDRG1 transcript after knockdown; BNIP3 mRNA: higher = more BNIP3 transcript after knockdown; ALDOC mRNA: higher = more ALDOC transcript after knockdown; ACSL5 mRNA: higher = more ACSL5 transcript after knockdown

Target gene | BNIP3L mRNA, set 1 | NDRG1 mRNA, set 1 | BNIP3 mRNA, set 1 | ALDOC mRNA, set 1 | ACSL5 mRNA, set 1
SEMA4C (GeneID 54910) | 0.096 | 0.0886 | 0.257 | 0.023 | 0.154
NKX2-3 (GeneID 159296) | 0.0673 | 0.21 | 0.291 | 0.012 | 0.143
XYLB (GeneID 9942) | 0.0798 | 0.156 | 0.167 | 0.0126 | 0.264
ZPR1 (GeneID 8882) | 0.173 | 0.203 | 0.412 | 0.0493 | 0.328
CDKN1C (GeneID 1028) | 0.0895 | 0.183 | 0.242 | 0.00743 | 0.169
DHRS12 (GeneID 79758) | 0.118 | 0.166 | 0.289 | 0.0424 | 0.204
PRMT7 (GeneID 54496) | 0.0844 | 0.166 | 0.288 | 0.0395 | 0.201
HAGH (GeneID 3029) | 0.0793 | 0.257 | 0.194 | 0.0398 | 0.156
C19orf33 (GeneID 64073) | 0.0879 | 0.139 | 0.305 | 0.0158 | 0.129
WDR12 (GeneID 55759) | 0.0551 | 0.0807 | 0.294 | 0.00981 | 0.153
CAPRIN1 (GeneID 4076) | 0.0364 | 0.277 | 0.309 | 0.0213 | 0.147
SLC35F5 (GeneID 80255) | 0.155 | 0.34 | 0.709 | 0.0549 | 0.167
RPL37A (GeneID 6168) | 0.204 | 0.564 | 0.251 | 0.0261 | 0.0923
GCHFR (GeneID 2644) | 0.0718 | 0.239 | 0.232 | 0.038 | 0.175
GPBP1L1 (GeneID 60313) | 0.101 | 0.177 | 0.282 | 0.0448 | 0.174

6 entries from above, ordered by “ALDOC mRNA, set 1”, low to high:
Target gene | BNIP3L mRNA, set 1 | NDRG1 mRNA, set 1 | BNIP3 mRNA, set 1 | ALDOC mRNA, set 1 | ACSL5 mRNA, set 1
CDKN1C (GeneID 1028) | 0.0895 | 0.183 | 0.242 | 0.00743 | 0.169
XYLB (GeneID 9942) | 0.0798 | 0.156 | 0.167 | 0.0126 | 0.264
PRMT7 (GeneID 54496) | 0.0844 | 0.166 | 0.288 | 0.0395 | 0.201
HAGH (GeneID 3029) | 0.0793 | 0.257 | 0.194 | 0.0398 | 0.156
DHRS12 (GeneID 79758) | 0.118 | 0.166 | 0.289 | 0.0424 | 0.204
ZPR1 (GeneID 8882) | 0.173 | 0.203 | 0.412 | 0.0493 | 0.328

The listing continues:
Target gene | BNIP3L mRNA, set 1 | NDRG1 mRNA, set 1 | BNIP3 mRNA, set 1 | ALDOC mRNA, set 1 | ACSL5 mRNA, set 1
IGFBP4 (GeneID 3487) | 0.073 | 0.185 | 0.332 | 0.01 | 0.116
RNPS1 (GeneID 10921) | 0.196 | 0.166 | 0.477 | 0.038 | 0.609
CST7 (GeneID 8530) | 0.0339 | 0.164 | 0.2 | 0.0191 | 0.174
LZTS2 (GeneID 84445) | 0.183 | 0.185 | 0.383 | 0.0474 | 0.138
TRIM58 (GeneID 25893) | 0.0981 | 0.684 | 0.338 | 0.0234 | 0.209
BRPF1 (GeneID 7862) | 0.0655 | 0.198 | 0.288 | 0.0158 | 0.232
SIVA1 (GeneID 10572) | 0.168 | 0.224 | 0.282 | 0.0266 | 0.526
STAT2 (GeneID 6773) | 0.133 | 0.171 | 0.19 | 0.0356 | 0.163
RUBCN (GeneID 9711) | 0.264 | 0.327 | 0.265 | 0.099 | 0.235
BST2 (GeneID 684) | 0.0877 | 0.126 | 0.254 | 0.0317 | 0.212
ADAMTS1 (GeneID 9510) | 0.113 | 0.399 | 0.41 | 0.0259 | 0.166
RRBP1 (GeneID 6238) | 0.137 | 0.237 | 0.324 | 0.0378 | 0.148
LGALS8 (GeneID 3964) | 0.0743 | 0.129 | 0.313 | 0.00769 | 0.273
DHCR24 (GeneID 1718) | 0.121 | 0.227 | 0.316 | -0.00847 | 0.237
PGF (GeneID 5228) | 0.116 | 0.171 | 0.266 | 0.049 | 0.122
EAF1 (GeneID 85403) | 0.197 | 0.762 | 0.19 | 0.0546 | 0.216
AGPAT5 (GeneID 55326) | 0.211 | 0.866 | 0.242 | 0.022 | 0.631
ZC2HC1C (GeneID 79696) | 0.145 | 0.349 | 0.397 | 0.0382 | 0.167
GLS (GeneID 2744) | 0.152 | 0.339 | 0.343 | 0.0178 | 0.211
